Source: patent publication US20070090330A1, “NOVEL AQUEOUS COMPOSITION AND USE OF THE SAME” (Institute for State Physics of Natural Materials, priority 1999, published 2007)

Assay: Test 8: antirusting test at various concentrations, iron plate under HCl gas stream
Design: key: +: corrosion; −: no corrosion

Fe(II)2Fe(III)3Cl13 [compound 1]
−: The state of corrosion of the surface after 1 hour (2.5 × 10^−1 g/ml) | The state of corrosion of the surface after 6 days (2.5 × 10^−1 g/ml) | The state of corrosion of the surface after 1 hour (2.5 × 10^−3 g/ml) | The state of corrosion of the surface after 6 days (2.5 × 10^−3 g/ml) | The state of corrosion of the surface after 1 hour (2.5 × 10^−5 g/ml) | The state of corrosion of the surface after 6 days (2.5 × 10^−5 g/ml) | The state of corrosion of the surface after 1 hour (2.5 × 10^−7 g/ml) | The state of corrosion of the surface after 6 days (2.5 × 10^−7 g/ml)
